This assay concerns the target full-length RNase E (RneFL), BACTH fusion (E. coli) (UniProt P21513). Description: two-hybrid; BACTH in E. coli BTH101: RapZ variant fused to T18, RNase E variant fused to T25; β-galactosidase activity of cells grown to stationary phase at 28°C.

The chains behind the UniProt entries cited, without tags or fusion partners. Where a name states a change or a piece, a line headed by the entry shows the natural chain unless it says otherwise.
UniProt P21513: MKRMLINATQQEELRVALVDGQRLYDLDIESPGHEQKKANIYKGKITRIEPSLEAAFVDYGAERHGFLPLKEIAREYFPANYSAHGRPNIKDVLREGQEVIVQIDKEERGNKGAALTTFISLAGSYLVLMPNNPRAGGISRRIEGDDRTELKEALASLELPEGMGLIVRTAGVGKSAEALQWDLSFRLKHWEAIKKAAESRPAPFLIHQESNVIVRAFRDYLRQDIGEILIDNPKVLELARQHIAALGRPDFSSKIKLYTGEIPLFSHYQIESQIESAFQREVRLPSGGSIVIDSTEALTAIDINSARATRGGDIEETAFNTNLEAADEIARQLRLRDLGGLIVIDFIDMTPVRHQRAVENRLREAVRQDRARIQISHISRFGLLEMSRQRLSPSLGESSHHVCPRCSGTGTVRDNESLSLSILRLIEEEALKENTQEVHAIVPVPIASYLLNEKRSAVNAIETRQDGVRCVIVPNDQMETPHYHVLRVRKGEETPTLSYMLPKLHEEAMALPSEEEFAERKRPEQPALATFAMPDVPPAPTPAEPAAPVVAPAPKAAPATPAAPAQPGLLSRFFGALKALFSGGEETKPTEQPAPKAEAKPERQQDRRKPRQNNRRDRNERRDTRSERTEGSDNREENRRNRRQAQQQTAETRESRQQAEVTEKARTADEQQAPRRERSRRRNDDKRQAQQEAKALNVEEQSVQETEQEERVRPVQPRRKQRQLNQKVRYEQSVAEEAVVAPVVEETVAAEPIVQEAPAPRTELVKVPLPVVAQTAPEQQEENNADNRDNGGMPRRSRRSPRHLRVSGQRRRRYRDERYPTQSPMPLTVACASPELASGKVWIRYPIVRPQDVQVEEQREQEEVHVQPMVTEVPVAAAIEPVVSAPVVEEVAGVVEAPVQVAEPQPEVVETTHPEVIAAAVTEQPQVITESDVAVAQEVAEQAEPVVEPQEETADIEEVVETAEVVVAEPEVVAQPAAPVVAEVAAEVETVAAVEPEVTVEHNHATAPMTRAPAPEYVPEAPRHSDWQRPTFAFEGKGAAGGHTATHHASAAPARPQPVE
UniProt P0A894: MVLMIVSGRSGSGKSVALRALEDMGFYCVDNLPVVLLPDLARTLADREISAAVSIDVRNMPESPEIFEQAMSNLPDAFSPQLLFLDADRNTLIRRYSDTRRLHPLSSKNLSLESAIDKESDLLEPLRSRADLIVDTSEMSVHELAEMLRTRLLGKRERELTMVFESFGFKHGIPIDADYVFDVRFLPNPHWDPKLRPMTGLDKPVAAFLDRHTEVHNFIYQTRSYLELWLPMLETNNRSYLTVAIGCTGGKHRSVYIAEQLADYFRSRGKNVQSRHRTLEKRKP

No constants are given. Whether binding was seen depends on the method and setting.

Binding data for one substance are collected here from publication PMC7430671.

As to “RapZ truncation lacking 8 residues from the carboxyl terminus, BACTH fusion (from UniProt P0A894) (domain or fragment)”, the binding entry was “no binding”.
